In PubChem BioAssay AID2685 (National Center for Advancing Translational Sciences (NCATS), 2010) one finds cell number change and AC50 data, which are given here for 58 compounds.

Some of the results follow. Further columns of the screen follow, without active or inactive calls. Most of these compounds were active or inconclusive in the main read-out, so they are no random draw. Potencies come from curve fits of mixed quality, noted in brackets.

The assay can be described thus: qHTS Assay for Lipid Storage Modulators in Drosophila S3 Cells.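 On cell number change: cells counted by Cell Tracker Red CMTPX staining in the red channel.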 The note with it: BODIPY lipid droplet fluorescence, 18-24 h; for cell number change: measured here: cell count max response, cells fed with added oleic acid. The method, boiled down: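 Drosophila S3 cells loaded with oleic acid (400 uM, as added) and compounds at several concentrations; lipid droplets imaged by 488-nm laser-scanning cytometry, 500–530 nm intensity and object ratio to cell channel. Percent activity normalized to 20 uM Triacsin C.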

The mark [1] stands for this setting: measured here: cell number channel AC50, cells fed with added oleic acid.
Setting [2] is: measured here: lipid fluorescence (Fed channel) AC50, cells fed with added oleic acid.

As for `Fc1cccc(CNc2ncnc3ccc(-c4ccc5c(c4)OCO5)cc23)c1`, the cell number change was -8.78%.

For the compound `COc1ccc(CC(=O)Nc2ccc3c(c2)OCO3)cc1S(=O)(=O)N1CCOCC1`, the cell number change is 33.1%. The AC50 (usually the concentration at which the activity in the assay is half-maximal) under setting [1] was 1.3 µM [rising, full curve, poor fit]. The AC50 under setting [2] was 2.31 µM [rising, partial curve].

With `Cc1ccc(C(=O)N/C(=C\c2cccs2)C(=O)NCC2CCCO2)cc1C` (centres undefined), the cell number change is 4.62%.

Take `CCc1nnc(NC(=O)CCC(=O)Nc2ccccc2)s1`: the cell number change is -5.7%. Also, the AC50 under setting [2] is 0.411 µM [falling, partial curve, poor fit].

Regarding `COc1ccc(S(=O)(=O)N2CCCC2CNC(=O)C(=O)NCc2ccc3c(c2)OCO3)cc1` (centres undefined), the cell number change is -2.01%.

`Cc1ccc(C(=O)NNC(=S)NC(=O)c2ccco2)cc1`: the cell number change is -11%. Besides, under setting [2], the AC50 is 32.6 µM [falling, single point].

Take `O=C(Nc1ccc(F)cc1F)c1cccc(S(=O)(=O)N2CCCCC2)c1`: the cell number change was -2.2%. In addition, under setting [2], the AC50 is 3.26 µM [falling, single point].

For `O=c1[nH]c2cc3c(cc2cc1CN(Cc1cccnc1)Cc1nnnn1Cc1ccco1)OCCO3`, under setting [2], the AC50 was 6.51 µM [rising, single point].

With `CCOc1ccc(S(=O)(=O)N(CC(=O)Nc2cccnc2)c2ccc(F)cc2)cc1`, the cell number change was -39.6%. In addition, the AC50 under setting [1] is 29.1 µM [falling, single point].

As to `COC(=O)c1sc(NC(C)=O)c(C(=O)OC)c1C`, the cell number change is -7.5%. The concentration at half-maximal activity (AC50) under setting [2] was 1.46 µM [rising, full curve, poor fit].

`Cc1cc(N2CCN(S(=O)(=O)c3ccccc3)CC2)c2ccccc2n1`: the cell number change is -23.6%. Also, the AC50 under setting [2] was 29.1 µM [rising, single point].

Take `COc1cccc(CNC(=O)CSCC(=O)Nc2cc(C)on2)c1`: the cell number change is -50%. Also, the AC50 under setting [1] is 0.146 µM [falling, full curve, poor fit].

As for `O=c1[nH]nc(SCc2nnc(-c3cccc(Cl)c3)o2)n1C1CCCCC1`, the cell number change was -35.9%. Moreover, under setting [1], the AC50 was 0.00461 µM [falling, full curve, poor fit].

For `Cc1ccc(O)c(NC(=O)COc2cc(C)ccc2C)c1`, the AC50 under setting [2] is 4.11 µM [rising, single point].

Turning to `CCn1cc(C(=O)NCc2ccc3c(c2)OCO3)c(=O)c2cc(S(=O)(=O)N3CCOCC3)ccc21`, the AC50 by setting is: under setting [1], 0.411 µM [falling, full curve, poor fit]; under setting [2], 0.411 µM [falling, full curve, poor fit].

In the case of `COc1ccc(Cn2c(-c3ccc(C)cc3)c[n+]3ccccc23)cc1`, the cell number change is -30.8%. The AC50 under setting [1] was 25.9 µM [falling, partial curve, poor fit]. For the same compound, the AC50 under setting [2] was 20.6 µM [falling, single point].

Take `CN1C(=O)N(C)C2C1NC(=O)N2C` (centres undefined): the cell number change worked out at 6.41%. Besides, the AC50 under setting [2] was 29.1 µM [rising, single point].

On to `CC(C)(C)c1ccc(OC(=O)c2cccnc2)cc1`, for which the cell number change was -49.8%. Moreover, the AC50 under setting [1] is 23.1 µM [falling, partial curve, poor fit]. In addition, the AC50 under setting [2] was 16.4 µM [falling, partial curve].

On to `Cc1ccc(-c2nc3ccccc3n3nnnc23)cc1`, for which the cell number change was 91.6%. For the same compound, the AC50 under setting [1] is 2.06 µM [rising, full curve]. The AC50 under setting [2] is 2.31 µM [rising, full curve].

For the compound `O=C(CSc1ccc(Cl)cc1)Nc1cc(-c2nc3ncccc3o2)ccc1Cl`, the cell number change is -58.9%. Under setting [1], the AC50 was 11.6 µM [falling, partial curve]. Moreover, the AC50 under setting [2] is 18.4 µM [falling, partial curve].

Consider `CCCSc1cc(=O)n(-c2ccccc2)nc1C(=O)O`, for which the cell number change is -37.4%. The AC50 under setting [2] was 0.116 µM [falling, full curve, poor fit].

`O=C(Cc1cccs1)Nc1ccc(NC(=O)c2ccco2)cc1`: the cell number change was -36.9%. Besides, the AC50 under setting [1] is 0.13 µM [falling, full curve, poor fit]. Besides, the AC50 under setting [2] was 0.58 µM [falling, single point].

For the compound `Cc1nonc1NC(=O)CSc1nc2ccccc2o1`, the cell number change worked out at 0.952%. For the same compound, the AC50 under setting [2] is 29.1 µM [rising, single point].

Take `CN1CCN(S(=O)(=O)c2ccc(SCCOc3ccccc3)nc2)CC1`: the cell number change was -18.3%.

Consider `N#CCCN(C(=O)COC(=O)c1ccc2c(c1)NC(=O)CS2)c1ccc2c(c1)OCCO2`, for which the cell number change is 17.5%. Also, the AC50 under setting [1] is 6.51 µM [falling, single point]. Besides, the AC50 under setting [2] is 0.517 µM [falling, partial curve, poor fit].

`CCOC(=O)c1c(C)nc2c(c1-c1ccc(OC)cc1)C(=O)CC(C)(C)C2`: the cell number change is 8.66%. In addition, the AC50 under setting [2] was 6.51 µM [falling, single point].

Regarding `Cc1cc(Cl)c(S(=O)(=O)Nc2ccc3c(c2)OCO3)cc1OCC(=O)NC1CCCCC1`, the cell number change worked out at 32.6%. In addition, the AC50 under setting [1] was 3.66 µM [rising, full curve]. Also, under setting [2], the concentration at half-maximal activity (AC50) was 18.4 µM [rising, partial curve].

For `CN(C(=O)COC(=O)CNC(=O)C12CC3CC(CC(C3)C1)C2)C1CCS(=O)(=O)C1` (centres undefined), the cell number change was -50%. Further, under setting [1], the AC50 is 29.1 µM [falling, single point].

Turning to `O=C(COc1ccc([N+](=O)[O-])cc1)NNC(=O)c1cccs1`, the cell number change worked out at 28%. In addition, the AC50 under setting [2] was 6.51 µM [falling, single point].

For the compound `CCC(C)NC(=O)Cc1c(OC)ccc2cc(Br)ccc12` (centres undefined), the cell number change was found to be 10.8%.

Regarding `COc1ccccc1N1CCN(/N=C/C=C/c2ccccc2[N+](=O)[O-])CC1`, the cell number change is -30.7%. The AC50 under setting [1] is 29.1 µM [falling, single point]. Besides, the concentration at half-maximal activity (AC50) under setting [2] is 29.1 µM [falling, single point].

In the case of `COc1ccc(CNc2nc3c(c(=O)n(Cc4ccc(F)cc4)c(=O)n3C)n2C)cc1`, the cell number change was -19.5%. The AC50 under setting [2] was 6.51 µM [rising, single point].

For the compound `CN(C(=O)c1ccco1)c1nc(-c2ccc(F)cc2)cs1`, the cell number change was -4.15%.

Regarding `COc1cc(NC(=O)c2cccs2)c(C(=O)OCC(=O)c2cc(C)n(-c3ccc(F)cc3)c2C)cc1OC`, the cell number change is -7.41%. Under setting [2], the AC50 was 29.1 µM [rising, single point].

In the case of `CC(=O)c1cnc(-c2ccccn2)s1`, the AC50 under setting [1] was 0.164 µM [rising, full curve, poor fit].

For `C=CCOc1ccc(Br)cc1CNC(C)(C)CO`, the cell number change is -2.55%. Moreover, under setting [1], the AC50 was 0.13 µM [falling, full curve, poor fit]. The AC50 under setting [2] is 0.82 µM [falling, full curve, poor fit].

On to `CCOC(=O)c1[nH]c2ccc(OCC)cc2c1CCCN1C(=O)c2ccccc2C1=O`, for which the cell number change is 23.9%. For the same compound, the AC50 under setting [2] is 0.651 µM [rising, full curve].

On to `CSc1nnc(CCNS(=O)(=O)c2ccc(Br)cc2)n1C`, for which the cell number change stood at 7.92%. Moreover, the AC50 under setting [2] was 5.8 µM [rising, single point].

As to `CNC[C@H](Cc1ccccc1)NC[C@@H](Cc1cccc2ccccc12)NCCc1ccc(C)cc1`, the cell number change is -18.3%. Further, under setting [2], the AC50 is 29.1 µM [falling, single point].

In the case of `CS(=O)(=O)Nc1ccc(C(=O)Nc2ccc3c(c2)OCCO3)cc1`, the cell number change turned out to be 19.2%. Also, the AC50 under setting [1] was 0.651 µM [falling, single point]. For the same compound, under setting [2], the AC50 was 0.651 µM [falling, single point].

Regarding `CCS(=O)(=O)N1CCN(Cc2nc3ccccc3c(=O)[nH]2)CC1`, the cell number change is 14.6%. Further, the AC50 under setting [2] was 4.61 µM [falling, single point].

In the case of `O=C(CN1C(=O)NC(Cc2ccccc2)C1=O)NC(=O)NC1CCCCC1` (centres undefined), the cell number change is -3.06%. Further, the AC50 under setting [2] was 0.651 µM [falling, single point].

For the compound `COc1cccc(NC(=O)CN(C)C(=O)c2cc(-c3ccco3)nc3ccccc23)c1`, the cell number change is 20.6%. For the same compound, under setting [2], the AC50 is 1.84 µM [rising, partial curve].

Regarding `COc1ccccc1C(=O)N=C1SC2CS(=O)(=O)CC2N1c1ccccc1` (centres undefined), the cell number change was -5.86%. Further, the AC50 under setting [2] was 6.51 µM [rising, partial curve, poor fit].

Regarding `NC(=O)c1c(NC(=O)c2ccccc2)sc2c1CCc1ccccc1-2`, the AC50 is, setting by setting: under setting [1], 6.51 µM [rising, single point]; under setting [2], 4.11 µM [rising, partial curve].

For `CCC1=C(OC(=O)N(CC)CC)N2C(=O)OC(=NCCOC)[C@]2(Cc2ccccc2)[C@H]2C1=CC[C@H]1C(=O)NC(=O)[C@H]12`, the AC50 under setting [2] was 0.116 µM [rising, full curve, poor fit].

In the case of `COc1ccc(-c2csc(NC(=O)c3cc(C)oc3C)n2)cc1OC`, the cell number change was -32.4%. In addition, under setting [1], the AC50 was 11.2 µM [falling, single point].

`CC(NC(=O)c1cc2sccc2n1C)c1ccc2c(c1)OCCO2` (centres undefined): the cell number change came out at 108%. Also, under setting [1], the AC50 was 29.1 µM [rising, single point].

As for `COc1ccc(F)cc1-c1nc(N)nc(N)n1`, the cell number change was determined as 11.3%.

Consider `O=C(Cc1nnc(NC(=O)Nc2ccccc2F)s1)NCc1ccccc1`, for which the cell number change is -24.7%. In addition, the AC50 under setting [2] is 29.1 µM [falling, single point].

For the compound `Cc1sc(NC(=O)c2ccccc2)c(C(=O)c2ccccc2)c1C`, the cell number change amounted to 22.6%. For the same compound, the AC50 under setting [2] is 2.06 µM [rising, partial curve].

In the case of `O=C(NCc1ccccn1)C(=O)NCc1ccccn1`, the cell number change was found to be 6.38%. For the same compound, under setting [2], the AC50 was 0.58 µM [falling, single point].

On to `Cc1ccnc(NC(=O)c2ccc3c(c2)NC(=O)C(C)S3)c1` (centres undefined), for which the cell number change is -7.02%.

On to `O=C(Nc1ccc(NC(=O)C2CC2)nc1)c1ccccn1`, for which the cell number change was -11.1%.

Consider `CCOc1cc(C(=O)N2CCC(CC3CC(c4ccc(Cl)cc4)=NO3)(C(=O)NCC3CCCCC3)CC2)cc(OCC)c1OCC` (centres undefined), for which the cell number change stood at 20.4%. The AC50 under setting [2] was 5.17 µM [falling, full curve].

Regarding `Cc1ccnc(NS(=O)(=O)c2ccc(Oc3ccccc3)cc2)c1`, the cell number change is -3.75%.

In the case of `CCc1ccc(C(=O)NNC(=O)C2CCN(c3ncnc4sc(C)c(C)c34)CC2)cc1`, the cell number change came to 32.3%. In addition, the AC50 under setting [1] is 3.26 µM [rising, full curve, poor fit].

For the compound `Cc1ccc(S(=O)(=O)N2CCOCC2)cc1C(=O)Nc1cccc(C(=O)NC2CC2)c1`, the cell number change is -52.3%. Further, under setting [1], the AC50 is 29.1 µM [falling, single point]. The AC50 under setting [2] is 29.1 µM [falling, single point].
